# Laboratory results as given in paper PMC11766905.
# The chains behind the UniProt entries cited, without tags or fusion partners.
# UniProt P35637: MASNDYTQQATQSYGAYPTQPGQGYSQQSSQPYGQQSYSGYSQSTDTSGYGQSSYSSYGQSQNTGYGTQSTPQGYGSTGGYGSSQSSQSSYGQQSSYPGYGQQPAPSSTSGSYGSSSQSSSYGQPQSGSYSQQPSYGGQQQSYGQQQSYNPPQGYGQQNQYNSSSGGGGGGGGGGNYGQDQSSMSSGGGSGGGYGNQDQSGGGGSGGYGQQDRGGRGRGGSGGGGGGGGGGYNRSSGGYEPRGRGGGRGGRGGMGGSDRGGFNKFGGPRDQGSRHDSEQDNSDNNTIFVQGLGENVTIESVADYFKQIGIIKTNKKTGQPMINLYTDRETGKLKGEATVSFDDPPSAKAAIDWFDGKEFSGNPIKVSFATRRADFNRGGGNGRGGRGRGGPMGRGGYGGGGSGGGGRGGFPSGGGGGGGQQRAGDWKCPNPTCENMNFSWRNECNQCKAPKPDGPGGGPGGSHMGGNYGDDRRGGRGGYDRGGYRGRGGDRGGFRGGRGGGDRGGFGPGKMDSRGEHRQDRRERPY
# UniProt P02994: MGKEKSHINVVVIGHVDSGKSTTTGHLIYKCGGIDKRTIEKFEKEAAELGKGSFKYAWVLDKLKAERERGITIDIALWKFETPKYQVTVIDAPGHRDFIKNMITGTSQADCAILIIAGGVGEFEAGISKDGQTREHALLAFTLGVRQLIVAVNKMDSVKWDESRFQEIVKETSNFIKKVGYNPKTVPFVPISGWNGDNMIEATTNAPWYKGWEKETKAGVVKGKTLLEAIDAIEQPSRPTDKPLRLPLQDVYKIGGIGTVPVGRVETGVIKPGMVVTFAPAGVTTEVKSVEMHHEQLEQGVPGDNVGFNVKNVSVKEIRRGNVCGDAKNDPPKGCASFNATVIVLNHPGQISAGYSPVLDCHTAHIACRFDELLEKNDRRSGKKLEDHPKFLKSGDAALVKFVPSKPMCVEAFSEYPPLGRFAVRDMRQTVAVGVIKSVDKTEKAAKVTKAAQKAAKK
# UniProt P10591: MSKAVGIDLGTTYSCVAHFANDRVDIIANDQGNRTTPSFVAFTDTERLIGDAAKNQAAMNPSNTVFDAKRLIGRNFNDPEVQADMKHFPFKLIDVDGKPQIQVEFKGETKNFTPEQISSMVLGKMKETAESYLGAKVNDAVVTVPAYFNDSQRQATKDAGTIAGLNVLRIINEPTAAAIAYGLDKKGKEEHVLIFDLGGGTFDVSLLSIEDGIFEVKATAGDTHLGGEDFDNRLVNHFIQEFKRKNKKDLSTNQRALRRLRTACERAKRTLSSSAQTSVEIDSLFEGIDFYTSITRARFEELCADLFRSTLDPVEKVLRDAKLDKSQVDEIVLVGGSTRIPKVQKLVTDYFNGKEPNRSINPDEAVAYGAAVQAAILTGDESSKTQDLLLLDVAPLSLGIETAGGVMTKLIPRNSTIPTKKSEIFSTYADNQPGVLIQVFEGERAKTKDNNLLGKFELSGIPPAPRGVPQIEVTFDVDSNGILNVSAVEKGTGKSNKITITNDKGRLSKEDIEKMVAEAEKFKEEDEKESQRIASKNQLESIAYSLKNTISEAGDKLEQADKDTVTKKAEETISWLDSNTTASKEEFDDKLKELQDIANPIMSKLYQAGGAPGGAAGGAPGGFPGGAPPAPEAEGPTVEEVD
# UniProt P24784: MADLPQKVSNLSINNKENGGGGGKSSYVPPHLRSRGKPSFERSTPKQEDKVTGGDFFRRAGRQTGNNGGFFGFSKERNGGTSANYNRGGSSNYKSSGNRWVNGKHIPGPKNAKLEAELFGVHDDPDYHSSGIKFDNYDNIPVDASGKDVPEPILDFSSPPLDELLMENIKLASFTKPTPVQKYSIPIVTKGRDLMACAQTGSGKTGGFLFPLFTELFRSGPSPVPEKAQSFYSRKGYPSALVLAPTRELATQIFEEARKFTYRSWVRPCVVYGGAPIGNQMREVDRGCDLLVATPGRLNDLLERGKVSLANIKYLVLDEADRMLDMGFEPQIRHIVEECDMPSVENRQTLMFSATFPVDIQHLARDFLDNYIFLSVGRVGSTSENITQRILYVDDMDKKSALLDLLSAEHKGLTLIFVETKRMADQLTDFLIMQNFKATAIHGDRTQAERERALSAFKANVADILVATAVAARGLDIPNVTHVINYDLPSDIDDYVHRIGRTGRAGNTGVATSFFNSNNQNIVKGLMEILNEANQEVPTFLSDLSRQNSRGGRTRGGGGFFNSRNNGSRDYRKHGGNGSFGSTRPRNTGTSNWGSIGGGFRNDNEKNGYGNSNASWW
# UniProt P42945: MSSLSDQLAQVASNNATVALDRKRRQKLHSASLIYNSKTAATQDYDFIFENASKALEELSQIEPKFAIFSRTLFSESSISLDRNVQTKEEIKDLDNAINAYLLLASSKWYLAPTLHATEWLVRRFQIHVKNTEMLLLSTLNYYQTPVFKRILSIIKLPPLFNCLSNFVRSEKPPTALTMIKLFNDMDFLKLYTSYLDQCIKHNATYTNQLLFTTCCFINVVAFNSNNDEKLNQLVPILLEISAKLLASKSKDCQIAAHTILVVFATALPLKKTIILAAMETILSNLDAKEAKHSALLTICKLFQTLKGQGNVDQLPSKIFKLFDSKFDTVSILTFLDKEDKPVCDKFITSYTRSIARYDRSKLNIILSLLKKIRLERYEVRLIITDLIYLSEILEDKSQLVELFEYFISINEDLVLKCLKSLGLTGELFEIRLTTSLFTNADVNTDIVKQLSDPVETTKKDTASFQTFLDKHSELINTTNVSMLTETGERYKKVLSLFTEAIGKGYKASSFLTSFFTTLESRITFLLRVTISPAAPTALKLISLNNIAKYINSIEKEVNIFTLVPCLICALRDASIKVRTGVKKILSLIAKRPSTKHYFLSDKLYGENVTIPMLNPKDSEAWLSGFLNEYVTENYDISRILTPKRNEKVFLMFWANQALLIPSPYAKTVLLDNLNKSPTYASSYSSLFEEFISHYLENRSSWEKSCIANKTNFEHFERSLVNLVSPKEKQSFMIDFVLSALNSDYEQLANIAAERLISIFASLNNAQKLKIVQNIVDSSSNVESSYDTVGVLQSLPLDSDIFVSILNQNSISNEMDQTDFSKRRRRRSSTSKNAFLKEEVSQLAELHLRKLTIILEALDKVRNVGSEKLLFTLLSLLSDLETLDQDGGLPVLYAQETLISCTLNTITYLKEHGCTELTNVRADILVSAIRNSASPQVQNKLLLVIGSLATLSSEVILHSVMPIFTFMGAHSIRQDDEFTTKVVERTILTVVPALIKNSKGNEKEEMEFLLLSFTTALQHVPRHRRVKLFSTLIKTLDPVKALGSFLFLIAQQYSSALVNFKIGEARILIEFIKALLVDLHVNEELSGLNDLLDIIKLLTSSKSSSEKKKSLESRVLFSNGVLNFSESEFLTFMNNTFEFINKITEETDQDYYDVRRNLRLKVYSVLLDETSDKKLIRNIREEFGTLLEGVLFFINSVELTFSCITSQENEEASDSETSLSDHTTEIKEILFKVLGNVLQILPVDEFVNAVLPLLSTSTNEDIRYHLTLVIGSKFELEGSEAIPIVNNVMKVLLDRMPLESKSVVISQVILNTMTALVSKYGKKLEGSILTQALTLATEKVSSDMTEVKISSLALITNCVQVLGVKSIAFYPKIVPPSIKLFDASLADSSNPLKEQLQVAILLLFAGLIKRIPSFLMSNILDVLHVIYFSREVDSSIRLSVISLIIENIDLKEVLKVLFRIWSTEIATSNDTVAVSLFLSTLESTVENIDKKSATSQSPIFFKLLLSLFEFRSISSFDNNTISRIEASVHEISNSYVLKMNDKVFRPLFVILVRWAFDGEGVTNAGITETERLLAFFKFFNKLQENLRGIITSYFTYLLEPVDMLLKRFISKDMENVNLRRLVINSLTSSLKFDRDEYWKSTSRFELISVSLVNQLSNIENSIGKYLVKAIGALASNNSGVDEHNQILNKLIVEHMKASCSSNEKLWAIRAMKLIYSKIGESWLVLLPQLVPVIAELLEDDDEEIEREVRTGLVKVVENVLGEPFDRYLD
# UniProt P06634: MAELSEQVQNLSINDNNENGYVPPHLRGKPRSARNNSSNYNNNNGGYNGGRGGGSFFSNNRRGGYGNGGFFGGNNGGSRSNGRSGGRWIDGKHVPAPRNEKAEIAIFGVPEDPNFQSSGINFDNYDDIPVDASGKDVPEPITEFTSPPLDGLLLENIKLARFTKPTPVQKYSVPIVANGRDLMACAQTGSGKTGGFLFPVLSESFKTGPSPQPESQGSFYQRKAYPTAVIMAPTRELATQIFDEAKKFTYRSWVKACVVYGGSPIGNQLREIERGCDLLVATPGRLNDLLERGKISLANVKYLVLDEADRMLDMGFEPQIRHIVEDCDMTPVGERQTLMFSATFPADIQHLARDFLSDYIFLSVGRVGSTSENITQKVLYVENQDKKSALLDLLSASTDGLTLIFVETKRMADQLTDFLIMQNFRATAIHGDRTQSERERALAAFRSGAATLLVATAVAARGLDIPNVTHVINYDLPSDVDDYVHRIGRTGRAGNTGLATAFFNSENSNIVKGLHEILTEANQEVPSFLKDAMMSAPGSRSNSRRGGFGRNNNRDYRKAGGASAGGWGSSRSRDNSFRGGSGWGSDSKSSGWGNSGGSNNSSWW
# UniProt P15646: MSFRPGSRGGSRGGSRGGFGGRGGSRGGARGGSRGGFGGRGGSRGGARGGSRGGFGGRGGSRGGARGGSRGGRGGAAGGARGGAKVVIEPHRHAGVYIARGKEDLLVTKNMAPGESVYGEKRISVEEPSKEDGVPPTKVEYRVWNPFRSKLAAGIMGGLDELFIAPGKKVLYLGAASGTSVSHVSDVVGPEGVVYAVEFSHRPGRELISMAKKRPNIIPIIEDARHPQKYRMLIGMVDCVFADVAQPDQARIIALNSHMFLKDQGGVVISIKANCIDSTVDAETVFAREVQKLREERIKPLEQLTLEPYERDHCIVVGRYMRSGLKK
# UniProt Q12460: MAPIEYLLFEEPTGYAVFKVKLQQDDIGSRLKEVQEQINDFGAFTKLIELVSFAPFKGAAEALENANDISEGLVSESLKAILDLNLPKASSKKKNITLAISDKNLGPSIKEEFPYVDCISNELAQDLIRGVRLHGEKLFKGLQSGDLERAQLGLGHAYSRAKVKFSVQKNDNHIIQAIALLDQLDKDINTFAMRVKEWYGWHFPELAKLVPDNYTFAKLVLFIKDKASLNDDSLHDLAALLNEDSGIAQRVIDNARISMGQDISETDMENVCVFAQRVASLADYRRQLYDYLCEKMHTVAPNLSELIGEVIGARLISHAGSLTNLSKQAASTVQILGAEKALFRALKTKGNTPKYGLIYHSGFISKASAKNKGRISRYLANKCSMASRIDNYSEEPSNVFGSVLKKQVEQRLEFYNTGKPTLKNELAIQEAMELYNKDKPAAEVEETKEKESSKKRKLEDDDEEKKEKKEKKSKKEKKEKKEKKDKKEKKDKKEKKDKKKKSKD
# UniProt Q07794: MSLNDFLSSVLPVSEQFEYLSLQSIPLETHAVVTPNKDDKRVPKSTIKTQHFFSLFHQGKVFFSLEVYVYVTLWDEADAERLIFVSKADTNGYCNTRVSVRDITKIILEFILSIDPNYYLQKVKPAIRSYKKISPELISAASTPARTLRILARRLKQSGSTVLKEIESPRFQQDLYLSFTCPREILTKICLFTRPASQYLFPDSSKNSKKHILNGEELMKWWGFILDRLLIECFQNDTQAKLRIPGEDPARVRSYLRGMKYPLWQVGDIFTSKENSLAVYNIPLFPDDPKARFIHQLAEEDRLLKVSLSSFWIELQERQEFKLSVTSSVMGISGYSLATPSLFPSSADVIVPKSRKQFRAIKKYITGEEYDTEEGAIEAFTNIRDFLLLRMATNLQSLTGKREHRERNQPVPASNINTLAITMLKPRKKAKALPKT
# UniProt P24783: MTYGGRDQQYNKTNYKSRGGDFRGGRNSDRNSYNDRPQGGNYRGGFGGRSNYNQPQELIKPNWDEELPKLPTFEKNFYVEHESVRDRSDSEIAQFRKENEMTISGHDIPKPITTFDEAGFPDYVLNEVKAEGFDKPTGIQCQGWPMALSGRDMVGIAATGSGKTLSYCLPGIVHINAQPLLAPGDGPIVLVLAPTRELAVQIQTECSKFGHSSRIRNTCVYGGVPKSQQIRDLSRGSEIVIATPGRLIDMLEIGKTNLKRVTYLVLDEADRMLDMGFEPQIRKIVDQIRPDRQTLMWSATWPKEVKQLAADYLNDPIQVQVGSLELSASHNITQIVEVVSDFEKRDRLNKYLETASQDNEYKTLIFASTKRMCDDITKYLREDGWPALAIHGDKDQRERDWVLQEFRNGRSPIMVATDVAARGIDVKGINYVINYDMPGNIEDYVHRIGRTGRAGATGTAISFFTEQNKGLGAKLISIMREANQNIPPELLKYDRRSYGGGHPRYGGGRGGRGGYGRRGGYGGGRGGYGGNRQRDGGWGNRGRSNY
# No constants are given. Whether binding was seen depends on the method and setting. Binding seen in cells or lysates may run through a third protein. A yes stands for co-enrichment or nearness to the bait. Other partners may have been found. A no says only that the protein was not detected with the bait.
# Biological target: Fused in Sarcoma (FUS) (UniProt P35637)
# Experiment: affinity purification with mass spectrometry; rabbit polyclonal FUS antibody covalently attached to magnetic beads (M270 Dynabeads), incubated with lysates of W303 yeast overexpressing FUS; controls: lysate without FUS and naked beads; two independent Co-IPs, tandem MS; hits: over 40 peptide spectrum matches, at least two-fold enrichment over both controls, found in both trials
row,Molecule,binding
1,Tef1 (from UniProt P02994 1-458),binds
2,Ssa1 (from UniProt P10591 1-642),binds
3,Dbp1 (from UniProt P24784 1-617),binds
4,Utp10 (from UniProt P42945 1-1769),binds
5,Ded1 (from UniProt P06634 1-604),binds
6,Nop1 (from UniProt P15646 1-327),binds
7,"Ipl1 (protein, UniProt P38991 1-367) MQRNSLVNIKLNANSPSKKTTTRPNTSRINKPWRISHSPQQRNPNSKIPSPVREKLNRLPVNNKKFLDMESSKIPSPIRKATSSKMIHENKKLPKFKSLSLDDFELGKKLGKGKFGKVYCVRHRSTGYICALKVMEKEEIIKYNLQKQFRREVEIQTSLNHPNLTKSYGYFHDEKRVYLLMEYLVNGEMYKLLRLHGPFNDILASDYIYQIANALDYMHKKNIIHRDIKPENILIGFNNVIKLTDFGWSIINPPENRRKTVCGTIDYLSPEMVESREYDHTIDAWALGVLAFELLTGAPPFEEEMKDTTYKRIAALDIKMPSNISQDAQDLILKLLKYDPKDRMRLGDVKMHPWILRNKPFWENKRL",no binding
8,"Utp22 (protein, UniProt P53254 1-1237) MATSVKRKASETSDQNIVKVQKKHSTQDSTTDNGSKENDHSSQAINERTVPEQENDESDTSPESNEVATNTAATRHNGKVTATESYDIHIARETAELFKSNIFKLQIDELLEQVKLKQKHVLKVEKFLHKLYDILQEIPDWEEKSLAEVDSFFKNKIVSVPFVDPKPIPQNTNYKFNYKKPDISLIGSFALKAGIYQPNGSSIDTLLTMPKELFEKKDFLNFRCLHKRSVYLAYLTHHLLILLKKDKLDSFLQLEYSYFDNDPLLPILRISCSKPTGDSLSDYNFYKTRFSINLLIGFPYKVFEPKKLLPNRNCIRIAQESKEQSLPATPLYNFSVLSSSTHENYLKYLYKTKKQTESFVEATVLGRLWLQQRGFSSNMSHSGSLGGFGTFEFTILMAALLNGGGINSNKILLHGFSSYQLFKGVIKYLATMDLCHDGHLQFHSNPENSSSSPASKYIDEGFQTPTLFDKSTKVNILTKMTVSSYQILKEYAGETLRMLNNVVQDQFSNIFLTNISRFDNLKYDLCYDVQLPLGKYNNLETSLAATFGSMERVKFITLENFLAHKITNVARYALGDRIKYIQIEMVGQKSDFPITKRKVYSNTGGNHFNFDFVRVKLIVNPSECDKLVTKGPAHSETMSTEAAVFKNFWGIKSSLRRFKDGSITHCCVWSTSSSEPIISSIVNFALQKHVSKKAQISNETIKKFHNFLPLPNLPSSAKTSVLNLSSFFNLKKSFDDLYKIIFQMKLPLSVKSILPVGSAFRYTSLCQPVPFAYSDPDFFQDVILEFETSPKWPDEITSLEKAKTAFLLKIQEELSANSSTYRSFFSRDESIPYNLEIVTLNILTPEGYGFKFRVLTERDEILYLRAIANARNELKPELEATFLKFTAKYLASVRHTRTLENISHSYQFYSPVVRLFKRWLDTHLLLGHITDELAELIAIKPFVDPAPYFIPGSLENGFLKVLKFISQWNWKDDPLILDLVKPEDDIRDTFETSIGAGSELDSKTMKKLSERLTLAQYKGIQMNFTNLRNSDPNGTHLQFFVASKNDPSGILYSSGIPLPIATRLTALAKVAVNLLQTHGLNQQTINLLFTPGLKDYDFVVDLRTPIGLKSSCGILSATEFKNITNDQAPSNFPENLNDLSEKMDPTYQLVKYLNLKYKNSLILSSRKYIGVNGGEKGDKNVITGLIKPLFKGAHKFRVNLDCNVKPVDDENVILNKEAIFHEIAAFGNDMVINFETD",binds
9,"Mcm4 (protein, UniProt P30665 1-933) MSQQSSSPTKEDNNSSSPVVPNPDSVPPQLSSPALFYSSSSSQGDIYGRNNSQNLSQGEGNIRAAIGSSPLNFPSSSQRQNSDVFQSQGRQGRIRSSASASGRSRYHSDLRSDRALPTSSSSLGRNGQNRVHMRRNDIHTSDLSSPRRIVDFDTRSGVNTLDTSSSSAPPSEASEPLRIIWGTNVSIQECTTNFRNFLMSFKYKFRKILDEREEFINNTTDEELYYIKQLNEMRELGTSNLNLDARNLLAYKQTEDLYHQLLNYPQEVISIMDQTIKDCMVSLIVDNNLDYDLDEIETKFYKVRPYNVGSCKGMRELNPNDIDKLINLKGLVLRSTPVIPDMKVAFFKCNVCDHTMAVEIDRGVIQEPARCERIDCNEPNSMSLIHNRCSFADKQVIKLQETPDFVPDGQTPHSISLCVYDELVDSCRAGDRIEVTGTFRSIPIRANSRQRVLKSLYKTYVDVVHVKKVSDKRLDVDTSTIEQELMQNKVDHNEVEEVRQITDQDLAKIREVAAREDLYSLLARSIAPSIYELEDVKKGILLQLFGGTNKTFTKGGRYRGDINILLCGDPSTSKSQILQYVHKITPRGVYTSGKGSSAVGLTAYITRDVDTKQLVLESGALVLSDGGVCCIDEFDKMSDSTRSVLHEVMEQQTISIAKAGIITTLNARSSILASANPIGSRYNPNLPVTENIDLPPPLLSRFDLVYLVLDKVDEKNDRELAKHLTNLYLEDKPEHISQDDVLPVEFLTMYISYAKEHIHPIITEAAKTELVRAYVGMRKMGDDSRSDEKRITATTRQLESMIRLAEAHAKMKLKNVVELEDVQEAVRLIRSAIKDYATDPKTGKIDMNLVQTGKSVIQRKLQEDLSREIMNVLKDQASDSMSFNELIKQINEHSQDRVESSDIQEALSRLQQEDKVIVLGEGVRRSVRLNNRV",binds

# Now from value to molecule:
row,binding,Molecule
1,binds,Nop56 (from UniProt Q12460 1-504)
2,no binding,Rtt109 (from UniProt Q07794 1-436)
3,binds,Prp43 (from UniProt P53131 1-767)
4,binds,Rrp5 (from UniProt Q05022 1-1729)
5,binds,Dbp2 (from UniProt P24783 1-546)
6,binds,"Ylr419W (protein, UniProt Q06698 1-1435) MAKKTKNNSKSSTPVNDVPTTAGKKKAKGKKGQEPEPEDDKRAKQQSNRAKVTSTASWTGKLPHTILHETCQKRKWNKVEYDMKKIGDKGFIAIAVLSFTDPKTKETLTARMNDPTYDKASGKGLVIPQETPIEARHMASTIALYRIAYNTNLHMMLPPNHRKTWYALDDFRKDNLKTDEKRINKLFDLDPFKTMVEDRKLKAQREKEQVAQNNQAQKEQVARTILSSHGGISSSGKDRQERKVASHKNSHNPSLVRFPKKVWENSIFVDLDESSRQLIETSLKEKIDWQAKKISHKNETIAENREDLKAKLLTLQFRPKHVEEAMLYKDPLSFLLFNLPEDDLPPFFHKKKGDTKNKVEITNLPLSTRMIVERLTEIGVSSDEALLALQQNDMNENEAAGFLTREILPTLNSNTNEPVSETESIECWNQELESLESIYEGCVMDAKEDSHYTLNLIEKLKIKLKVYRTKNYPASLPGIVVSTFDKNYKLPDYIKKQILTRLLHYLQEGNLIGDMLVYHIYEWLKENISKIIDNPGPLIPDSDSKGAINKRNISNGKRSINNSSSRKFTKTTISEDTLSVLREEYTKRIKSSEYKSMQLVREQLPAWKKQKVIIDIINKNEVVLITGETGSGKSTQVVQFILDFLQKEKGDFGKTKIVCTQPRRISAIGLAERVSDERCVTCGEEVGYVIRGVNKTKASTRIKFMTTGVLVRLLQNARTMLENTIVVIDEVHERSIDTDLIVTLMKNLLHRVRGMKIVLMSATVNVDLFKKFFPGLATCHIEGRTFPITDYFLEDILSDLDFKIKREKALSYDDDSVDERNNDDQYLKPRADSKFFTSGQINYDLLCQVVEYVHKRLKAANDNGSIIVFLPGVGEINKCCNLLANKSNEADFMVLPLHSALTPEDQKRVFKKYHGKRKVVVSTNIAETSITIDDCVATIDTGRAKSMFYNPKDNTTKLIESFISKAEVKQRRGRAGRVREGLSYKLFSKNLYENDMISMPIPEIKRIPLESLYLSVKAMGIKDVKAFLSTALDAPPLPALQKAERILTTIGLVDESDKSLTQLGQFISLMPVMDSKHGKLLIYGILFGCTDISVLLVSILGIGVLPFIGGFENREKIKKLLCKYESRGDLFAVLEIVRDYFKIKDSSIKRKYLRDNLLSYNKINEIKSSTAQYYSILKDVGFLPMDYKVGSISDLNRNERNFDILRAILTGAFYPHIARVQLPDVKYLSTSSGAVEKDPEAKMIKYWIRSEEYQDKLEEYKTKISQETQKVDLEDLPLPATRAFIHPSSVLFSTNSVNLEDAKLLSEVDGPISRQSKIPTVVKYPFVLFTTSQVTNKLYLRDLTPTTTLSLLLFGGAISYDIGGTIHSPGIVVDNWLPIRTWCKNGVLIKELRTQLDEAIRKKLESPDYAKKSQIDNSGADKTLKIVEKIIASEQ"
